Experimental findings from US8309718B2, “4-pyrazolyl-N-arylpyrimidin-2-amines and 4-pyrazolyl-N-heteroarylpyrimidin-2-amines as janus kinase inhibitors” (Incyte Corporation, priority 2007, dated 2012) are described below.

Sequences of proteins named here, by UniProt entry; tags and fusion partners are left off. Residues count along the entry.
UniProt O60674, 828-1132: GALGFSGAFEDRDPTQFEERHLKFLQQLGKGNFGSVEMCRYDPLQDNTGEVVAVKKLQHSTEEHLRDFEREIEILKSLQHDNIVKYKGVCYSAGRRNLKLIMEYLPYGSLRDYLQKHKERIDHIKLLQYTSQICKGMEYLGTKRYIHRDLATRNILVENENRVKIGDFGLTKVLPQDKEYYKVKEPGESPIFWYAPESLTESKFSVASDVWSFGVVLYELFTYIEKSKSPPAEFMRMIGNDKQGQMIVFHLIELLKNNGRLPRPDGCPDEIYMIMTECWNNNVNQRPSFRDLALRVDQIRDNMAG

This experiment deals with T1, human JAK2 (Homo sapiens, UniProt O60674).
T1 construct: JAK2 (a.a. 828-1132); His tag (N); made in house; host or cells: insect cells (baculovirus)
Kind of experiment: In vitro JAK kinase assay (HTRF, phosphorylation of biotinylated peptide). Particulars: catalytic domain a.a. 828-1132, 30 μM ATP, 500 nM peptide, room temperature 1 hr; read-out: JAK-2 IC50. In kind it is biochemical. The method, then:
Compounds herein were tested for inhibitory activity of JAK targets according to the following in vitro assay described in Park et al, Analytical Biochemistry 1999, 269, 94-104. The catalytic domains of human JAK1 (a.a. 837-1142), JAK2 (a.a. 828-1132) and JAK3 (a.a. 781-1124) with an N-terminal His tag were expressed using baculovirus in insect cells and purified. The catalytic activity of JAK1, JAK2 or JAK3 was assayed by measuring the phosphorylation of a biotinylated peptide. The phosphorylated peptide was detected by homogenous time resolved fluorescence (HTRF). IC50s of compounds were measured for each kinase in the reactions that contain the enzyme, ATP and 500 nM peptide in 50 mM Tris (pH 7.8) buffer with 100 mM NaCl, 5 mM DTT, and 0.1 mg/mL (0.01%) BSA. The ATP concentration in the reactions was 90 μM for JAK1, 30 μM for Jak2 and 3 μM for JAK3. Reactions were carried out at room temperature for 1 hr and then stopped with 20 μL 45 mM EDTA, 300 nM SA-APC, 6 nM Eu-Py20 in assay buffer (Perkin Elmer, Boston, Mass.). Binding to the Europium labeled antibody took place for 40 minutes and HTRF signal was measured on a Fusion plate reader (Perkin Elmer, Boston, Mass.). Certain of the above compounds were tested according to this assay.

On to `N#CCC(C1CCOCC1)n1cc(-c2ccnc(Nc3ccc(C(=O)NC4CCOCC4)cc3)n2)cn1` (racemic) [Example 309, 4-[(4-{1-[2-cyano-1-(tetrahydro-2H-pyran-4-yl)ethyl]-1H-pyrazol-4-yl}pyrimidin-2-yl)amino]-N-(tetrahydro-2H-pyran-4-yl)benzamide], for which the IC50 was less than 100 nM.
